# No constants are given. Whether binding was seen depends on the method and setting. Binding seen in cells or lysates may run through a third protein. Binding calls can cover weak binding; strength is not graded here. For some assays here: Sequences can lack the tags named with a protein.
# T1: endogenous cGAS (pig (endogenous in PK15)) (UniProt I3LM39)
# T1 sequence: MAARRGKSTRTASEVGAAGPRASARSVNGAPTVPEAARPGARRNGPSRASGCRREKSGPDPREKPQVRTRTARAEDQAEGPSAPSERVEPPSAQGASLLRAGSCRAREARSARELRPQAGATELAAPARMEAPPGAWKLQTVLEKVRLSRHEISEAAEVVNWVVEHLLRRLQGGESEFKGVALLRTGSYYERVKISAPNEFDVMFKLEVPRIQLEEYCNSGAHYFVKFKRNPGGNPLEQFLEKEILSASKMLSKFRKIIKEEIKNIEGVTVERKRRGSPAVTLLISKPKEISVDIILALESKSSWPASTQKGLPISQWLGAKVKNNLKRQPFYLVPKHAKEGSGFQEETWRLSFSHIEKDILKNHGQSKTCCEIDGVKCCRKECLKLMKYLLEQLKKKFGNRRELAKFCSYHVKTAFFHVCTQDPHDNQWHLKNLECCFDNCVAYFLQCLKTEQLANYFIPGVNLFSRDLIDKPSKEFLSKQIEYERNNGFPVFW
# B1: HA-cGAS (protein, UniProt I3LM39 1-495)
# chain: T1 sequence
# What was measured:
# [1] = biological target: T1, endogenous cGAS (pig (endogenous in PK15)); assay: co-IP
# [2] = biological target: Myc-DDX56 (porcine DDX56, Myc tag) (porcine); assay: co-IP
Molecule,binding [1],binding [2]
"Myc-DDX56 (porcine DDX56, Myc tag)",binds,–
B1,–,binds

# Source: paper PMC9450509
